# Reference: PubChem BioAssay AID2685 (National Center for Advancing Translational Sciences (NCATS), 2010)
# Among all 320,000 compounds or so, about 2,100 (0.66%) were called active. Inconclusive results, whose numbers are uncertain, are shown with a selection of clear calls. The call rests on the fitted dose curve; in most records, active means well fitted inhibition curve with a large enough effect in the signal ratio, with a control signal flat (not every such curve was filed as active); inconclusive means small, poorly fitted or top-dose-only effect, or effect the other way, or a change in a side signal; inactive means flat fitted curve, though single readings scatter; the % refers to the signal ratio. Potencies of inconclusive entries are doubtful fits and often do not repeat.
# Assay: qHTS Assay for Lipid Storage Modulators in Drosophila S3 Cells
# Conditions: BODIPY lipid droplet fluorescence, 18-24 h, cells fed with added oleic acid; lipid storage change, negative = inhibition: at 46.1 µM (top of the series) unless noted
# In short: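 Drosophila S3 cells loaded with oleic acid (400 uM, as added) and compounds at several concentrations; lipid droplets imaged by 488-nm laser-scanning cytometry, 500–530 nm intensity and object ratio to cell channel. Percent activity normalized to 20 uM Triacsin C.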
# On the % scale 0 is the no-effect control and ±100 the full control effect; potency means the concentration at half of the fitted maximal effect.
SMILES,"lipid storage change, negative = inhibition",Potency
CCOC(=O)C1=CCN(Cc2ccccc2)CC1,inconclusive: 97.7%,–
CC1Cc2ccccc2N1Cc1nc2scc(-c3cccs3)c2c(=O)[nH]1 (configuration not stated),inconclusive: 1.44%,–
Cc1ccc2nc(N3CCN(C(=O)CCCC(=O)O)CC3)nc(-c3ccccc3)c2c1,–,"inconclusive: 20.6 µM [falling, single point]"
CN(CC(=O)Nc1ccc(F)cc1)C(=O)COC(=O)CN1C(=O)NC2(CCCC2)C1=O,inconclusive: -39.7%,–
COc1cc(/C=C2/C(=N)N3C=CSC3=NC2=O)ccc1OCCCOc1ccccc1C,inconclusive: -22.7%,–
c1ccc(CNc2ncnc3sc4c(c23)CCC4)nc1,inconclusive: -42.7%,–
COc1cc(/C=C2/C(=N)N3OC(C)=CC3=NC2=O)ccc1OC(=O)c1ccco1,inconclusive: 13.2%,–
CCn1ncc(CNC(=O)CCCSc2nc(-c3ccco3)cc(C(F)(F)F)n2)c1C,inconclusive: -12.9%,–
CC1CCCN(CCCNC(=O)c2nn(C)c3c2CSc2ccccc2-3)C1 (configuration not stated),inconclusive: -21.8%,–
CCn1c(SCC(=O)OC)nc2sc3c(c2c1=O)CCC3,inconclusive: 34.3%,–
Cc1cc(=O)n2[nH]c(NCc3ccccc3F)nc2n1,–,"inconclusive: 25.9 µM [falling, single point]"
O=C(Nc1ccccc1)Nc1ccc(S(=O)(=O)N2CCCCC2)cc1,inconclusive: -47.8%,–
CCCCn1c(N)c(N(CC(C)C)C(=O)CN(C)S(=O)(=O)c2ccc(F)cc2)c(=O)[nH]c1=O,inconclusive,–
CCOc1ccccc1Nc1nc(N)nc(CN(C)C2CCCCC2)n1,inconclusive: 13.4%,–
O=C(Nc1ccc(F)cc1)c1ccc(CSc2ccc(Cl)cc2)o1,inconclusive: 11.5%,–
O=C(O)c1ccccc1/C=N/Nc1nc(N2CCCCC2)nc(N2CCCCC2)n1,–,"inconclusive: 1.84 µM [falling, partial curve]"
COc1ccc(-c2cn(CCC(=O)O)c(-c3ccc(Cl)nc3)n2)cc1,inconclusive: 22%,–
CCOc1ccc(C(=O)NCC(=O)OCC(=O)N2C(C)CCCC2C)cc1 (configuration not stated),inconclusive: 10.2%,–
Cc1ccc(N(CC(=O)N2CCOCC2)S(C)(=O)=O)cc1C,inconclusive: -148%,–
Nn1c(SCC(=O)Nc2nccs2)nnc1-c1ccco1,inconclusive: -9.74%,–
CC(C)c1cccc(C(C)C)c1NC(=O)COC(=O)c1ccc(OCC(=O)Nc2cccc(C(F)(F)F)c2)cc1,–,"inconclusive: 0.326 µM [falling, full curve]"
CCOC(=O)N1CCN(c2ccc(O)cc2)CC1,–,"inconclusive: 0.651 µM [falling, partial curve, poor fit]"
COc1ccc(C(=O)C[n+]2ccc3c(c2)nc(-c2cc(OC)c(OC)cc2OC)n3C)cc1,inconclusive: 12.2%,–
CCC(C(=O)Nc1ccccc1OC)n1c(C(=O)OC)cc2ccsc21 (configuration not stated),inconclusive: 35.1%,–
CC/C(=N\NC(=O)c1cc(C2CC2)[nH]n1)c1ccccc1,–,"inconclusive: 14.6 µM [activator, partial curve]"
CSc1ccc(-c2sc(Nc3ccccc3)n[n+]2-c2ccccc2)cc1,inconclusive: -58.1%,–

# Single records, as listed above. Values in the order: lipid storage change, negative = inhibition	Potency
# CCOC(=O)C1=CCN(Cc2ccccc2)CC1 is listed as inconclusive: 97.7%	–
# CC/C(=N\NC(=O)c1cc(C2CC2)[nH]n1)c1ccccc1 is listed as –	inconclusive: 14.6 µM [activator, partial curve]
# CCn1c(SCC(=O)OC)nc2sc3c(c2c1=O)CCC3 is listed as inconclusive: 34.3%	–
# CC1CCCN(CCCNC(=O)c2nn(C)c3c2CSc2ccccc2-3)C1 (configuration not stated) is listed as inconclusive: -21.8%	–

# Further entries follow:

SMILES,"lipid storage change, negative = inhibition",Potency
Cc1ccc2nc(C(F)C(F)(F)F)[nH]c2c1 (configuration not stated),–,"inconclusive: 29.1 µM [activator, single point]"
CC(OC(=O)c1cccnc1Cl)C(=O)NCc1ccccc1 (configuration not stated),inconclusive: -4.01%,–
Cc1ccc(/C=C2\SC(=S)N(CCC(=O)NNC(=O)c3cccc(O)c3)C2=O)cc1,–,"inconclusive: 29.1 µM [cytotoxic, single point]"
C=CCn1c(-c2cccnc2)n[nH]c1=S,inconclusive: 26.2%,–
CC(C)CNC(=S)NC1CC2CCCC(C1)N2Cc1ccco1 (configuration not stated),inconclusive: -21.6%,–
O=C1c2ccccc2NC(c2cccc(F)c2)N1Cc1ccccc1 (configuration not stated),inconclusive: -34.7%,–
O=C(Oc1ccc(Cl)c2cccnc12)N1CCCCC1,inconclusive: 54.3%,–
S=C(NCc1cccnc1)Nc1cc(Cl)cc(Cl)c1,inconclusive: 16.5%,–
CCc1nccn1CCC(=O)N1CCCC(Nc2ccc(F)cc2)C1 (configuration not stated),–,"inconclusive: 18.4 µM [falling, single point]"
COc1ccc(C2C(C#N)=C(N)Oc3c2c(-c2ccccc2)nn3-c2ccccc2)c(OC)c1OC (configuration not stated),inconclusive: -0.293%,–
CC(=O)Nc1ccc(S(=O)(=O)N2CCC(c3nc4ccc(C)cc4[nH]3)CC2)cc1,inconclusive: -30%,–
Cc1cccc2c(CCNC(=O)c3ccc([N+](=O)[O-])cc3)c[nH]c12,–,"inconclusive: 0.92 µM [activator, full curve]"
Cc1ccc(NC(=O)C/C(N)=N/OC(=O)c2ccccc2)cc1,inconclusive: 2.74%,–
CC(=O)OCC(=O)C1=CCC2C3CCC4=CC(=O)C=CC4(C)C3(F)C(OC(C)=O)CC12C (configuration not stated),inconclusive: 2.23%,–
CSc1nnc2ccc(-c3ccc(C)cc3)nn12,–,"inconclusive: 0.291 µM [falling, full curve]"
Cc1ccc(SCCC(=O)Nc2cc(C)on2)cc1,inconclusive: -8.99%,–
Fc1ccc(-c2cc(-c3nnc4n3CCCCC4)c3ccccc3n2)cc1,inconclusive: -82.4%,–
COc1ccc(N(CC(=O)Nc2cc(OC)ccc2OC)S(=O)(=O)c2c(C)noc2C)cc1,–,"inconclusive: 6.51 µM [activator, single point]"
COc1ccc(N2CCN(C(=O)c3c(Cl)cnn3C)CC2)cc1,inconclusive: 0.268%,–
CCCCOc1ccccc1NC(=O)c1ccc(=O)[nH]c1,–,"inconclusive: 1.64 µM [rising, partial curve]"
NC(=O)CC(NC(=O)c1ccc(Cl)cc1)C(=O)NCCc1ccc(S(N)(=O)=O)cc1 (configuration not stated),inconclusive: -38.6%,–
CN(C)S(=O)(=O)c1cccc(NC(=S)Nc2cc(Cl)cc(Cl)c2)c1,inconclusive: -13.6%,–
COCCn1c(CNc2ccc(F)cc2)nnc1SCC(=O)Nc1ccc(OC)cc1OC,inconclusive: 7.96%,–
O=C(CSc1nnc(-c2ccco2)n1Cc1ccccc1)NCc1ccccc1,inconclusive: -13.3%,–
O=C(O)CN1C(=O)COc2ccc(S(=O)(=O)N3CCCCCC3)cc21,inconclusive: -10.3%,–
CC(C)n1c(-c2ccco2)csc1=Nc1cccnc1,–,"inconclusive: 0.92 µM [activator, partial curve]"

# Two of the compounds above, as tab-separated lines.
SMILES	lipid storage change, negative = inhibition	Potency
CC1CCCN(CCCNC(=O)c2nn(C)c3c2CSc2ccccc2-3)C1 (configuration not stated)	inconclusive: -21.8%	–
O=C(O)c1ccccc1/C=N/Nc1nc(N2CCCCC2)nc(N2CCCCC2)n1	–	inconclusive: 1.84 µM [falling, partial curve]

# Additional entries.

SMILES,"lipid storage change, negative = inhibition",Potency
CC(C)(C)OC(=O)NCCCCCc1nnc(SCC(=O)Nc2cccc(Cl)c2)o1,inconclusive: -10.2%,–
CCCn1c(SCC(=O)Nc2cccc(S(=O)(=O)N(C)C)c2)nc2ccccc2c1=O,inconclusive: -18.2%,–
Cc1cc(C(=O)CN2C(=O)C3CC=CCC3C2=O)c(C)n1-c1ccccc1 (configuration not stated),inconclusive: 20.1%,–
O=C(COC(=O)CC1CCCC1)Nc1ccc(Cl)cn1,inactive,–
COc1cc(N=C(N)N=C(N)N)cc(OC)c1,–,"inconclusive: 0.146 µM [cytotoxic, full curve, poor fit]"
COc1ccc(/C=N\NC(=O)c2ccc(-c3ccccc3)cc2)cc1COC(C)=O,–,"inconclusive: 1.64 µM [activator, partial curve, poor fit]"
COc1ccc(NC(=O)COC(=O)CCCOc2ccc(Cl)cc2Cl)cc1Cl,inconclusive: 35.7%,–
Cc1ccc(S(=O)(=O)NC2CC2)s1,inconclusive: -34.6%,–
CCOc1ccccc1NC(=O)COc1coc(CN2CCCc3ccccc32)cc1=O,inconclusive: -85.3%,–
COc1ccccc1CCNC(=O)C(=O)NCC1OCCN1S(=O)(=O)c1ccc(Br)cc1 (configuration not stated),inconclusive: -13.6%,–
CCCC(=O)Nc1nnc(SCC(=O)NC2CC2)s1,–,"inconclusive: 23.1 µM [falling, single point]"
COc1ccc(C(=O)NCc2nc(C)c(C)s2)cc1OC1CCN(C(C)C)CC1,inconclusive: 19.8%,–
Cc1ccccc1NC(=S)NCc1ccc2c(c1)cc(C)n2C,inconclusive: 6.31%,–
O=c1c2ccccc2nc(-c2ccccc2)n1CCCn1ccnc1,inconclusive: 19.1%,–
CCC(=O)n1nc(-c2ccc(OC)cc2)nc1NCc1cccs1,inconclusive: 31.3%,–
CN(C)c1ccc(NC(=O)CN2CCN(S(=O)(=O)c3cc(Cl)ccc3Cl)CC2)cc1,–,"inconclusive: 11.6 µM [activator, partial curve]"
CC1(C)c2[nH]c3ccccc3c2C[C@H]2C(=O)N(N)CC(=O)N21,inconclusive: -31%,–
CC1CCN(C(=O)CNC(=O)Cn2ccc3ccccc3c2=O)CC1,inconclusive: 4.86% [at 9.22 µM],–
COc1ccc(CCNC(=O)CSc2ccccc2)cc1OC,inconclusive: -7.9%,–
COc1ccc(COc2ccc(S(=O)(=O)N3CCCC3)cc2C(N)=O)cc1F,–,"inconclusive: 29.1 µM [rising, single point]"
COc1ccc(N2CC(C(=O)N(CC(C)C)c3c(N)n(Cc4ccccc4)c(=O)[nH]c3=O)CC2=O)c(OC)c1 (configuration not stated),inconclusive: 11.4%,–
CC1(C)CC2CC(C)(CN2S(=O)(=O)c2ccc(C(=O)Nc3ccc(S(=O)(=O)N4CCOCC4)cc3)cc2)C1 (configuration not stated),–,"inconclusive: 20.6 µM [falling, partial curve, poor fit]"
CCOc1ccc(-c2nc(CCl)cs2)cc1OC,inconclusive: 6.09%,–
O=C(NCCc1ccccc1)c1c[nH]c2c(F)cccc2c1=O,–,"inconclusive: 0.13 µM [activator, full curve, poor fit]"
O=C(NCC1COc2ccccc2O1)C1CCN(S(=O)(=O)c2cccc3nsnc23)CC1 (configuration not stated),–,"inconclusive: 23.1 µM [falling, single point]"
